Assay results: publication PMC11588057
Results are given in words; binding and its absence hold for the method and conditions named. For part of these data: Binding seen in cells or lysates may run through a third protein. Some results given as binding are weak or reduced against the parent protein; the word gives no strength.

Assays:
[1] = target: T1, HIRA (co-IP domain-mapping experiments) (Drosophila) (UniProt O17468); experiment: co-IP; co-IP of GAF, HIRA and their deletion mutants (SI Appendix Figs. S6B-F, S8C-E); cells and tags not shown
T1 sequence: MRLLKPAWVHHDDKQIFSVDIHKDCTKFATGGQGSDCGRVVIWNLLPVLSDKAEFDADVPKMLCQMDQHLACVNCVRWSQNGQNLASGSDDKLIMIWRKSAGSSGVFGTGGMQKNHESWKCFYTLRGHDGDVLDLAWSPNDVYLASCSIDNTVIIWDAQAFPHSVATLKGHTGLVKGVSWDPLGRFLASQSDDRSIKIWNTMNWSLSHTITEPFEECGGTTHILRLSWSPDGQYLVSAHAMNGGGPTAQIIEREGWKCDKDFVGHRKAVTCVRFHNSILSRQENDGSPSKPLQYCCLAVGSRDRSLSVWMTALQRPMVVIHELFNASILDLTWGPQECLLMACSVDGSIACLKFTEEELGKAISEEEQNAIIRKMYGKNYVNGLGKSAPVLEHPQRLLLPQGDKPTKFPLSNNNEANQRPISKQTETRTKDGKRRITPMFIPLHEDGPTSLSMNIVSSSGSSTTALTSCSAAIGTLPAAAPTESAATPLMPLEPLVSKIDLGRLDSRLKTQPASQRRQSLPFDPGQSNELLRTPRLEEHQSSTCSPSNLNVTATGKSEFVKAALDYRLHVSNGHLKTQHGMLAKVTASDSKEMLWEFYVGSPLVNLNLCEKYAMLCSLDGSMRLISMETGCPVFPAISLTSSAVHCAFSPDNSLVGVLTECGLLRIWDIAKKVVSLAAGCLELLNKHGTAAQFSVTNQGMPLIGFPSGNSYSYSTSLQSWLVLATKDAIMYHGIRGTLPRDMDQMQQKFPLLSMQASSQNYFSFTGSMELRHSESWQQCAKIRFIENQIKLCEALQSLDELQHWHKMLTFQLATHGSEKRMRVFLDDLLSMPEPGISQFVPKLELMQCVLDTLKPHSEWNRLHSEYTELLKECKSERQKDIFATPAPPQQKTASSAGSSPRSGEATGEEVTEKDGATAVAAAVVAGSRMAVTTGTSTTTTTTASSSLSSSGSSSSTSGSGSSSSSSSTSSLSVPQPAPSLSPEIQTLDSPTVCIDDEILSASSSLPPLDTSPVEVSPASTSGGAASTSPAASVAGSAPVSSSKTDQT

[2] = target: GAF (co-IP domain-mapping experiments) (Drosophila) (UniProt Q08605); experiment: as above
[3] = target: GAF (in vitro, semidenaturing detergent agarose gel electrophoresis) (Drosophila) (UniProt Q08605); experiment: semidenaturing detergent agarose gel electrophoresis; GAF in solution, alone or in the presence of nucleosomes; detects high molecular weight oligomers (SI Appendix Fig. S7H, I)

B1: GAF (co-IP domain-mapping experiments) (protein, UniProt Q08605 1-582)
chain: MSLPMNSLYSLTWGDYGTSLVSAIQLLRCHGDLVDCTLAAGGRSFPAHKIVLCAASPFLLDLLKNTPCKHPVVMLAGVNANDLEALLEFVYRGEVSVDHAQLPSLLQAAQCLNIQGLAPQTVTKDDYTTHSIQLQHMIPQHHDQDQLIATIATAPQQTVHAQVVEDIHHQGQILQATTQTNAAGQQQTIVTTDAAKHDQAVIQAFLPARKRKPRVKKMSPTAPKISKVEGMDTIMGTPTSSHGSGSVQQVLGENGAEGQLLSSTPIIKSEGQKVETIVTMDPNNMIPVTSANAATGEITPAQGATGSSGGNTSGVLSTPKAKRAKHPPGTEKPRSRSQSEQPATCPICYAVIRQSRNLRRHLELRHFAKPGVKKEKKTTSGKKSSSGSSGSGSGALSSSGSVPQVQTVQSLHTLQGVQVKKDPDAQQQQQQQQQQQQQQQQQAMTVSGATGGQVQQQVQQVQQQVQQQQQQQQQQQQQLQHHQIIDSSGNITTATTSAQAAAAAQQQAAGQQQQLVAQSDGSESGAPLSIAQVQTLQGHQIIGNLNQVNITDFQQQQPQQQQQQQQQQQQQQQQQQQTQQTL
binding [1]: binds
binding [2]: binds

B2: GAF (in vitro, semidenaturing detergent agarose gel electrophoresis) (protein, UniProt Q08605 1-582)
chain: B1 chain
binding [3]: binds
